The values below come from PMC4764983.

Protein sequences, listed by entry. Tags and fused reporters are not part of them.
UniProt P27782: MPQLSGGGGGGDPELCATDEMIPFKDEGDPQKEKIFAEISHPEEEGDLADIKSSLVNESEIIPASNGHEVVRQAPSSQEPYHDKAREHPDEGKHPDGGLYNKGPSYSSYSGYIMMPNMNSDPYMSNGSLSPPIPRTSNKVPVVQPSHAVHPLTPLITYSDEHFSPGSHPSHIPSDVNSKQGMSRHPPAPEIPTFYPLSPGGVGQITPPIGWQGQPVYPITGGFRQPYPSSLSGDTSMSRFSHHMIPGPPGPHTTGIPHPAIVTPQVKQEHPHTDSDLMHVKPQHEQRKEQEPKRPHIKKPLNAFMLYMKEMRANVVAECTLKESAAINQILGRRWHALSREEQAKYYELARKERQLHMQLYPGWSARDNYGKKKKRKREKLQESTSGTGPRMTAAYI
UniProt O09106: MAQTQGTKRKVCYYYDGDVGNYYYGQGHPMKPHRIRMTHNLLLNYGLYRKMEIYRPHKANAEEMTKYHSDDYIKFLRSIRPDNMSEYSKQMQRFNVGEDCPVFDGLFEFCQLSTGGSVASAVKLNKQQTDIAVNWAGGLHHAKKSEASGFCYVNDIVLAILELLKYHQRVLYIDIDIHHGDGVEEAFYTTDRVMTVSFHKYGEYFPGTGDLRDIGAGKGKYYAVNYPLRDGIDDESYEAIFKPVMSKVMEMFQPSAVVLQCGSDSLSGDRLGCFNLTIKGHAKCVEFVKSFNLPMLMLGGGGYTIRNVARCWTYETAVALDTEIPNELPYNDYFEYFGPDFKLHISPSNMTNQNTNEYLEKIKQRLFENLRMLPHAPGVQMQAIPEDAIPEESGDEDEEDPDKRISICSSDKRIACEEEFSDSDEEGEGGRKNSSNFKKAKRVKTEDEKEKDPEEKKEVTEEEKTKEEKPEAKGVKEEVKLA
UniProt Q02248: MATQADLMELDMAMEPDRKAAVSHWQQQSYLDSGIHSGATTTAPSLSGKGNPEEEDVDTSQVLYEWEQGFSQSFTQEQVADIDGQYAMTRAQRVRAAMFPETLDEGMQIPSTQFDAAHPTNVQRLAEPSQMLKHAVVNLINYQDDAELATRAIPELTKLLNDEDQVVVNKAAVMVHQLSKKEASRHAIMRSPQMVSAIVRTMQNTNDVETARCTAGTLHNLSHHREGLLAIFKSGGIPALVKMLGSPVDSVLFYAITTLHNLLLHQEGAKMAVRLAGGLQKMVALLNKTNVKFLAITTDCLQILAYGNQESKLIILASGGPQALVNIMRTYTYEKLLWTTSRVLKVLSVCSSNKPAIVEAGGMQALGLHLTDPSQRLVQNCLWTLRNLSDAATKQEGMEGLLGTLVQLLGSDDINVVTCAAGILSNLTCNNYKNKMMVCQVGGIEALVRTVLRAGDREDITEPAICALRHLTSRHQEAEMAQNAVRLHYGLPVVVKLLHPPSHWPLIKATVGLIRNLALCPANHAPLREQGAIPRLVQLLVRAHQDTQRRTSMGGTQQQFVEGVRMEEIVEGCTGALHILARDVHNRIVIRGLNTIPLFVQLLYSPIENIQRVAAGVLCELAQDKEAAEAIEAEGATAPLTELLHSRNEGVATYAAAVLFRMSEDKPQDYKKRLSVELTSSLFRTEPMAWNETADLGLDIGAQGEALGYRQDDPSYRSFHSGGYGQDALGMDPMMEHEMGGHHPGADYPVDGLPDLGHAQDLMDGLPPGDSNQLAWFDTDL

Experiment [1] has as its target lymphoid enhancer-binding factor 1 (LEF-1), endogenous mouse (mouse (endogenous in C3H10T1/2 and STO)) (UniProt P27782). Put plainly: proximity ligation; Duolink II fluorescence PLA on C3H10T1/2^pLIVc and C3H10T1/2^SS18-SSX1-V5 cells fixed in 4% paraformaldehyde and permeabilised with 0.3% triton; pairs of primary antibodies from two species; foci counted in DAPI-stained nuclei; in some panels cells treated beforehand with recombinant Wnt3a, 250 nM TSA for 16 hrs, 5 uM DAPI for 30 min, or LEF-1 siRNA.

Experiment [2] has as its target histone deacetylase 1 (HDAC1), endogenous mouse (mouse (endogenous in C3H10T1/2 and STO)) (UniProt O09106). The description is as above.
Experiment [3] shares this target. Put plainly: native gel or EMSA; cleared lysates of C3H10T1/2^pLIVc and C3H10T1/2^SS18-SSX1-V5 cells on a 5% native gel, blotted and probed with anti-TCF4, anti-HDAC, anti-V5 and anti-β-catenin; co-migration. On the technique in general: Mobility shift assays separate free from complexed probe on a gel.

These are yes or no findings as the source states them, for the method shown. For some of these results: In cells and extracts the contact can be indirect. Some binding calls cover weakened binding; strength is not graded here.

Turning to “histone deacetylase 1 (HDAC1), endogenous mouse (from UniProt O09106 1-482) (enzyme)”, the binding entry in experiment [1] is “binds”.
As to “β-catenin, endogenous mouse (from UniProt Q02248 1-781)”, the binding entry in experiment [1], in experiment [2] and in experiment [3] was “binds” each time.
